What was measured:
[1] = general procedure: Fmoc solid-phase peptide synthesis; trityl, 2-chlorotrityl, 4-methyltrityl or 4-methoxytrityl resin (attachment through Orn/Lys side chain); DIC/HOBt; details: whole synthesis, scale 0.55 mmol, TFA salt (Atosiban)
[2] = general procedure: Fmoc solid-phase peptide synthesis; trityl chloride resin; DIC/HOBt; details: whole synthesis, scale 10 mmol, TFA salt
[3] = general procedure: Fmoc solid-phase peptide synthesis; 4-methoxytrityl resin; DIC/HOBt; details: whole synthesis
[4] = scale 0.64 mmol, TFA salt (Atosiban)

Pyr-His-Trp-Ser-Tyr-D-Ser(tBu)-Leu-Arg-Pro-NHEt
isolated mass [1]: 477.0 mg
isolated yield [1]: 61.8%

Atosiban
isolated mass [2]: 7.14 g
isolated yield [2]: 44.8%
isolated mass ([3]; scale 1.0 mmol, TFA salt): 0.79 g
isolated yield ([3]; scale 1.0 mmol, TFA salt): 48.6%

Pyr-His-Trp-Ser-Tyr-D-Leu-Leu-Arg-Pro-NHEt
isolated mass [1]: 488.1 mg
isolated yield [1]: 61.5%

Pyr-His-Trp-Ser-Tyr-D-Ser(tBu)-Leu-Arg-Pro-Azagly-NH2
isolated mass [3, 4]: 0.5553 g
isolated yield [3, 4]: 67.6%
